Patent US20050032111A1, “Cadherin-11 as an indicator of viable pregnancy” (priority 1997, published 2005)
Structures can show the parent of a compound that is named as a salt. For some of these results: At least one compound was matched to its structure with a doubt left. Some entries share one result that the patent states for a list of compounds.

What was measured:
[1] = test system: cad-11 in the endometrium; assay: Cad-11 immunostaining (HSCORE) of endometrial biopsies after treatment; format: in vivo, human; conditions: women with primary habitual abortion and LPD, one line per patient 1-8
Protocol: The intensity of cad-11 immunostaining in the endometrial biopsies may be determined by the semiquantitative HSCORE technique which is routinely used in oncology for cancer cell counts. The HSCORE is a continuous value (from 0-4, respectively), in which a discriminatory level that designates positives and negatives for the test is determined. Typically, a consensus is made between counts carried out by two observers in a blinded fashion employing a double-headed microscope at low and high magnification.
The presence of cad-11 was examined in endometrial biopsies obtained from women presenting with primary (no prior live birth) habitual abortion in association with luteal phase deficiency (LPD). […]
LPD was diagnosed by traditional methods prior to determining cad-11 by immunostaining. To increase the likelihood of including only those individuals with authentic LPD, the criteria for inclusion in this study was two consecutive biopsies with a 3 days of maturation delay based on the first day of the next menses as determined by morphological assessment.
In 16 such patients, cad-11 immunostaining was examined in biopsies obtained before and after treatment with either progesterone (results shown in Table 1A) or clomiphene citrate (results shown in Table 1B). […] The endometrial biopsy specimens were then re-evaluated for cad-11 using immunohistochemical staining. […]

cad-11 protein = assay: Western blot analysis of cad-11 protein in cultured endometrial stromal cells; format: cell-based, human; conditions: Example 4F
Protocol: (§1) Endometrial stroma cells were isolated from secretory endometrium as described above. The stroma cells were grown to confluence, washed with PBS, and cultured in DMEM containing charcoal stripped FCS for a further 24 h. The culture medium was removed, and after the cells had been washed twice with PBS, replaced with fresh DMEM containing charcoal stripped FCS. The cells were harvested for either Northern (see Example 5) or Western blot analysis (see Example 6) after 24 h of culture in the presence or absence of steroids in the culture medium P4 (0.1-1 μM), E2 (30 nm), or vehicle (0.1% ethanol).
Endometrial stromal cells were separated from the glandular epithelium by enzymatic digestion and mechanical dissociation as described above. The endometrial stromal cells were washed once in phenol red-free Dulbecco'e Modified Eagle's medium (DMEM) containing 10% charcoal-stripped fetal bovine serum (FBS) before being resuspended and plated in DMEM containing 25 mM glucose, […] L-glutamine, antibiotics (100 U/ml penicillin, 100 μg/ml streptomycin and 2.5 μg/ml fungizone), and supplemented with 30% charcoal-stripped FBS. The culture medium was replaced 30 min after plating in order to reduce epithelial cell contamination. The purity of the cell cultures was determined by immunocytochemical staining for vimentin, cytokeratin, muscle actin, and factor VIII. […]

cad-11 mRNA = assay: Northern blot analysis of cad-11 mRNA in cultured endometrial stromal cells; format: cell-based, human; conditions: Example 4F
Protocol: as §1
Endometrial stromal cells were separated from the glandular epithelium by enzymatic digestion and mechanical dissociation as described above. […] The purity of the cell cultures was determined by immunocytochemical staining for vimentin, cytokeratin, muscle actin, and factor VIII. […]
To standardise the amounts of total RNA, the blots were also probed with a radiolabelled synthetic oligonucleotide specific for 18S rRNA. […] The absorbance values obtained for the cad-11 transcripts were normalised relative to the 18S rDNA absorbance value. Statistical differences between time points and treatments were assessed by the analysis of variance (ANOVA). […]

CC(=O)[C@H]1CC[C@H]2[C@@H]3CCC4=CC(=O)CC[C@]4(C)[C@H]3CC[C@]12C [progesterone]
AFTER TREATMENT (HSCORE), cad-11 expression in the endometrium ([1]; Treatment: Progesterone Suppositories): 0-4 HSCORE

CCN(CC)CCOc1ccc(C(=C(Cl)c2ccccc2)c2ccccc2)cc1 [clomiphene citrate]
AFTER TREATMENT (HSCORE), cad-11 expression in the endometrium ([1]; Treatment: Clomiphene Citrate): 0-4 HSCORE

C[C@]12CC[C@@H]3c4ccc(O)cc4CC[C@H]3[C@@H]1CCC2=O [estrone]
potentiation of the progestin-mediated increase in cad-11 protein (cad-11 protein): potentiate this effect | potentiation of the progestin-mediated increase in cad-11 mRNA (cad-11 mRNA): potentiate this effect
